The supplement of paper PMC12819154, “High-throughput peptide-centric local stability assay extends protein–ligand identification to membrane proteins, tissues and bacteria” (Nature Structural & Molecular Biology, 2025)
Some of the results follow. Most values lie at the level of the controls, where differences are scatter.

By UniProt entry, the sequences of proteins in these tests, tags left out. Where a name states a change or a piece, a line headed by the entry shows the natural chain unless it says otherwise.
UniProt Q9DCL8: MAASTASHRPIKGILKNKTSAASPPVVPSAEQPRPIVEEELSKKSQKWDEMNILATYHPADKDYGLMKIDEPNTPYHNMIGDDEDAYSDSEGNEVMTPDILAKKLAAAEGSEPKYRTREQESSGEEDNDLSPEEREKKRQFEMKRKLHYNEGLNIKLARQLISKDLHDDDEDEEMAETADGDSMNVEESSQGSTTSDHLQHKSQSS
UniProt Q9DCC3: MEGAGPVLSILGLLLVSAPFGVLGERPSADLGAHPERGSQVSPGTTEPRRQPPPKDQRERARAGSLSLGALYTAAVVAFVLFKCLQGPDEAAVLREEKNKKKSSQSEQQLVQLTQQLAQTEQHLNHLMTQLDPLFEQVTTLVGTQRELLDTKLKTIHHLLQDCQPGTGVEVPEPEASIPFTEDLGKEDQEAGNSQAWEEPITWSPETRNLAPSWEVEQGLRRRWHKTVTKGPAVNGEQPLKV
UniProt Q9DCH4, whole entry: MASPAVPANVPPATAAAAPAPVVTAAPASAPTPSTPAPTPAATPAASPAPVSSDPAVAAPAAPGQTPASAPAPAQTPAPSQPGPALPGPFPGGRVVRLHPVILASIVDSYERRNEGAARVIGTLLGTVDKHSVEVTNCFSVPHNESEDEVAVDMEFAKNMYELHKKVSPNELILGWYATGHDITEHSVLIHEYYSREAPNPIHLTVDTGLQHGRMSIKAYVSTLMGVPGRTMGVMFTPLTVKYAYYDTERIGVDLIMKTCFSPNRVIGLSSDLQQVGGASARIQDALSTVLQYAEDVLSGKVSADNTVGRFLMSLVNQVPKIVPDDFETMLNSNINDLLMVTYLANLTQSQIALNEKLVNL
UniProt Q9EPK7: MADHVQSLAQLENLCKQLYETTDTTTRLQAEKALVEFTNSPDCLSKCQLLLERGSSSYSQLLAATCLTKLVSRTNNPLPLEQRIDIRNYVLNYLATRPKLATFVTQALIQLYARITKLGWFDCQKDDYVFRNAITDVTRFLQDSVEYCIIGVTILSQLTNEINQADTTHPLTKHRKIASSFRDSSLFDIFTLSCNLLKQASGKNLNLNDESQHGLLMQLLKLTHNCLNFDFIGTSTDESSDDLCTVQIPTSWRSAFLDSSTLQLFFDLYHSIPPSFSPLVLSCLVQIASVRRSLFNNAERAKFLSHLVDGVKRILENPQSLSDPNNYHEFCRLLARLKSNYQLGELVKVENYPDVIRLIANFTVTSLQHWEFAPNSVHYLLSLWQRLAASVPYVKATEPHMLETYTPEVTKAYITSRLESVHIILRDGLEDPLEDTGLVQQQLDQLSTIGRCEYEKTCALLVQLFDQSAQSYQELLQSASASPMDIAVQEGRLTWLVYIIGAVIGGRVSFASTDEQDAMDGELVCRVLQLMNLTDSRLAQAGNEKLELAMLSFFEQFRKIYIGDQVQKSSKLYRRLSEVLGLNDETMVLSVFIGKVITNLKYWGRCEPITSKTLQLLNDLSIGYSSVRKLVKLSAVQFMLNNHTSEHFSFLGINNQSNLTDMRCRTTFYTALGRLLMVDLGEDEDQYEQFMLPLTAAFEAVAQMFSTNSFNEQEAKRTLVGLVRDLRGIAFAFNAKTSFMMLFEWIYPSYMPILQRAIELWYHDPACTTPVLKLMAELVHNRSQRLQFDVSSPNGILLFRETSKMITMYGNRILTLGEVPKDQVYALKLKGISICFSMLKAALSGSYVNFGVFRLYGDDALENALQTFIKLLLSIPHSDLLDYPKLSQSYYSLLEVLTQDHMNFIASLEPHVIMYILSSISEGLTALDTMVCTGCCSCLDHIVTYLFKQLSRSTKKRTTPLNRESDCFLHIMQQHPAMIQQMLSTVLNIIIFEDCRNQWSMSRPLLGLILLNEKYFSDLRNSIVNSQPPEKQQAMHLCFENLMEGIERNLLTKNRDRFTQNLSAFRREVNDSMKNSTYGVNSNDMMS
UniProt Q9DBH0: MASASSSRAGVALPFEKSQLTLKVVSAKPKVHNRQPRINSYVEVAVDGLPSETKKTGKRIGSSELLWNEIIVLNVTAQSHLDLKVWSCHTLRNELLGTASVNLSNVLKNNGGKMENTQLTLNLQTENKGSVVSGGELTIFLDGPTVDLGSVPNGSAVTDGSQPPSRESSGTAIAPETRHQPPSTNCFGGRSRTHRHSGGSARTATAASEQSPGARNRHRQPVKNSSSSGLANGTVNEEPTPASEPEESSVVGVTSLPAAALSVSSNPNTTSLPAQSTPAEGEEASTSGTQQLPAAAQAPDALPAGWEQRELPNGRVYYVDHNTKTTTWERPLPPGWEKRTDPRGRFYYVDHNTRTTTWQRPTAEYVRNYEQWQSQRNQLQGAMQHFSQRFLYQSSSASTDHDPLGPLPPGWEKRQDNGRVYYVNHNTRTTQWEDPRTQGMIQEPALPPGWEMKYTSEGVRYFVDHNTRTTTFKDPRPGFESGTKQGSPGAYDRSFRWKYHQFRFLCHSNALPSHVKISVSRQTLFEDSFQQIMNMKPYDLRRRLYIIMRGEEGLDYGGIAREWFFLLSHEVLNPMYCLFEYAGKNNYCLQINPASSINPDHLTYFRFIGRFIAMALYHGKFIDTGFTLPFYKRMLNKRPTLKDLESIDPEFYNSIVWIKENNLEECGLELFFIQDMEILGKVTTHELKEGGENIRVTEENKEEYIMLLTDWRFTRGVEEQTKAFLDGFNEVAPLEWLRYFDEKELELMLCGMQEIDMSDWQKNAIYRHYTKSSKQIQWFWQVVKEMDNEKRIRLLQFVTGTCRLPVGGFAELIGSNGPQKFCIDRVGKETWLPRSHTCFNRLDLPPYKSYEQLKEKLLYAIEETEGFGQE
UniProt Q9EQZ7: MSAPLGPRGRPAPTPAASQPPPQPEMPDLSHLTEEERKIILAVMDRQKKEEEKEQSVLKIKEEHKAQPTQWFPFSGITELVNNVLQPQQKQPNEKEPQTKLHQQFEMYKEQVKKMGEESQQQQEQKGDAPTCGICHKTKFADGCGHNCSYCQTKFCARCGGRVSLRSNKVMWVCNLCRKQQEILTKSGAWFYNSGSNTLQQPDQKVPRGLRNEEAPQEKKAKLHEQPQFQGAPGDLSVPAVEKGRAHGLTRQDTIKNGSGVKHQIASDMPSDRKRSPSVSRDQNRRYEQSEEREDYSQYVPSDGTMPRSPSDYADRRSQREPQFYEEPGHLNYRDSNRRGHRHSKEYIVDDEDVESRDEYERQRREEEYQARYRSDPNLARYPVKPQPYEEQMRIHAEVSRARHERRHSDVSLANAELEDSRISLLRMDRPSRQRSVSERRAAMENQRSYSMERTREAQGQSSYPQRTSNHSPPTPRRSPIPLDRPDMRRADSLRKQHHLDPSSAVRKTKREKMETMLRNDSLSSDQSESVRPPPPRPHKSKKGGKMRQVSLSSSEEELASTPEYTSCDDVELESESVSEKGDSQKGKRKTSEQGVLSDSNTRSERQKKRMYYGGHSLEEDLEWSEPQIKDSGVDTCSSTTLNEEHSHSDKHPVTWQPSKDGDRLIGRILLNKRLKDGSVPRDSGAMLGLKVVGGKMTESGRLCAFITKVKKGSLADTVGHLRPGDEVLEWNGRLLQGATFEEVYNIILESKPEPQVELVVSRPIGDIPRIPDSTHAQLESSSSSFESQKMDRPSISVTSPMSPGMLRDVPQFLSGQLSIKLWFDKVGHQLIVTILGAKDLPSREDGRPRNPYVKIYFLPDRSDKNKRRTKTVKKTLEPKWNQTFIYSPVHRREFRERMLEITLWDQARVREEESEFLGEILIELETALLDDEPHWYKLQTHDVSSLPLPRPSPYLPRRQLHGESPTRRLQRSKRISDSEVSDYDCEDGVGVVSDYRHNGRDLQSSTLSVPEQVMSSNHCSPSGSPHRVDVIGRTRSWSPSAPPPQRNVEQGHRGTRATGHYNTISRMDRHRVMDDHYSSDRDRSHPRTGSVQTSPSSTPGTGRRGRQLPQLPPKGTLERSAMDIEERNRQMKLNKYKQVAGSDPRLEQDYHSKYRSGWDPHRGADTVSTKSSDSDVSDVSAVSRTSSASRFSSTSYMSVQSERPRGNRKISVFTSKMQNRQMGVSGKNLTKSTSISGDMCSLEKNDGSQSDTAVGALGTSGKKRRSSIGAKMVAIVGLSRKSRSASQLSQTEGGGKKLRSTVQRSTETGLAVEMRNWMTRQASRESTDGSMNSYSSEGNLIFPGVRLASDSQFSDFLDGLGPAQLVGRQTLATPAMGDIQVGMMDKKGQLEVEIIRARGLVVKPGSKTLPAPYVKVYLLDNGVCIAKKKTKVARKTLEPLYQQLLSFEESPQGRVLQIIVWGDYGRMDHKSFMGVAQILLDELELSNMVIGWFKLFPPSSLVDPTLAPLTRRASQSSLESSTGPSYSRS
UniProt Q9ERL9: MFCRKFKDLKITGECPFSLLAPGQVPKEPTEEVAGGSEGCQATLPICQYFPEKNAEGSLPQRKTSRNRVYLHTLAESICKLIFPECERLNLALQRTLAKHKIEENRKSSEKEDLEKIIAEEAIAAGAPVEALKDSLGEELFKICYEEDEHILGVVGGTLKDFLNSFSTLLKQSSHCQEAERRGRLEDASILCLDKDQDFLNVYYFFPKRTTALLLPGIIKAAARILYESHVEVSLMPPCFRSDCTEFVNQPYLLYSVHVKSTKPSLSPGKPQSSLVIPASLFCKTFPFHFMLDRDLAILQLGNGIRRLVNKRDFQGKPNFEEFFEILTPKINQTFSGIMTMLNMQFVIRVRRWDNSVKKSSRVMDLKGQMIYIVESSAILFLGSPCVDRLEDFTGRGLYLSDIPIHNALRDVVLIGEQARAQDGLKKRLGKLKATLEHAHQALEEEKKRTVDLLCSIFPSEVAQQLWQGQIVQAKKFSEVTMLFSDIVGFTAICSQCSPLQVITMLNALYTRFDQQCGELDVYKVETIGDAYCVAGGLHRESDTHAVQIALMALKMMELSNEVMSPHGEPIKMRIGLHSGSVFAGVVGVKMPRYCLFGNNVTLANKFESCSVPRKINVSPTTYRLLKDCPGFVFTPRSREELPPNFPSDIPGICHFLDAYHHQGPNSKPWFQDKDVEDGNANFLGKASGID
UniProt Q9EQP2: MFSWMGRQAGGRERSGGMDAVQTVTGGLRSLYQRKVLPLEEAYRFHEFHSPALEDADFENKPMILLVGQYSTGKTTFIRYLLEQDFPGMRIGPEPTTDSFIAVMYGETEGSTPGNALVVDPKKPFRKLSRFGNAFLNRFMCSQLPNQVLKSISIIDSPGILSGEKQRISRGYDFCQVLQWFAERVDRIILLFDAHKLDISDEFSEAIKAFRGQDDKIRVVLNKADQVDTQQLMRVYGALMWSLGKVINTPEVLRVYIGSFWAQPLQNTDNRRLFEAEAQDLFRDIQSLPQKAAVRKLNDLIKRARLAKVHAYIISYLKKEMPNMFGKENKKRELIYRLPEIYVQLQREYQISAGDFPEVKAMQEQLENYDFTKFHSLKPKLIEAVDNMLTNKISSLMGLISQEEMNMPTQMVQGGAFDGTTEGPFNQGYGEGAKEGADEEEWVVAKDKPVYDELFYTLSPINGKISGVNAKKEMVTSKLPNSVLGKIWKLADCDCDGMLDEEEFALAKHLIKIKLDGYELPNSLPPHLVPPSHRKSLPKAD
UniProt Q9EQZ6: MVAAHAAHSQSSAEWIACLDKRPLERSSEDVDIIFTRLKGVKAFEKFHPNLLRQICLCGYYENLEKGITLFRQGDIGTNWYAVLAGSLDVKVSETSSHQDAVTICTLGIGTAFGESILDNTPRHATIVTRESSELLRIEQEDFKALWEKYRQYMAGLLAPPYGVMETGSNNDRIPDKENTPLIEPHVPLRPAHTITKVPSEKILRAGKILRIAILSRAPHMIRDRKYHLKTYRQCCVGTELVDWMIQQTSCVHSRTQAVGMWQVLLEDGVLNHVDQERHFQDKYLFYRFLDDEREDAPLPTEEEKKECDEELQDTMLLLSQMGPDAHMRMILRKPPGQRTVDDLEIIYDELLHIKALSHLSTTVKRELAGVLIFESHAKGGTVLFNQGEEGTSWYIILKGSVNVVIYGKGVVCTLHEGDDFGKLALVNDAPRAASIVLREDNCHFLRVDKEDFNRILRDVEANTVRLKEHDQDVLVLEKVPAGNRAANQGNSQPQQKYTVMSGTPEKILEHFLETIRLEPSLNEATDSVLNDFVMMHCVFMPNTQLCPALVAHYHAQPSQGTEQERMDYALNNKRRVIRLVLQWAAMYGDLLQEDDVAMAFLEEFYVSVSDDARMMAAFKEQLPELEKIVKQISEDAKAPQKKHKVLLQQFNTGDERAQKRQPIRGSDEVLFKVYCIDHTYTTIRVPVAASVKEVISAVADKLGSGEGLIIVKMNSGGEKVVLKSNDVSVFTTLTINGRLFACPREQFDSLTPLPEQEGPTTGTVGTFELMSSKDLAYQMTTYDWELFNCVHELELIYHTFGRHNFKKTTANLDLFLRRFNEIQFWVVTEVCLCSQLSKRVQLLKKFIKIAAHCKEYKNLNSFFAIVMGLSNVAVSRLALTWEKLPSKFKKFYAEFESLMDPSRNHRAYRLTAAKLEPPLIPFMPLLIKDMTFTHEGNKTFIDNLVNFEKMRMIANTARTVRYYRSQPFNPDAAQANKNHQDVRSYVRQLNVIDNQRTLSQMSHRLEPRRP

What follows are targets tested with CN[C@@H]1C[C@H]2O[C@@](C)([C@@H]1OC)n1c3ccccc3c3c4c(c5c6ccccc6n2c5c31)C(=O)NC4 [staurosporine] (assay: log2 fold change of tryptic peptide abundance, ligand vs vehicle (limited proteolysis) (log2 ratio); higher = more trypsin-susceptible (destabilized)). Conditions: ligand concentration: 20 uM; sample: mouse liver crude lysate; replicate design: treated separately.
“UniProt Q9DCM7 (peptide sequence: VKHEAMEMPPASGPGLASK, peptide start residue: 170)” gave a log2 fold change of 0.488.
“UniProt Q9EPR4 (peptide sequence: SSDKDSQATV, peptide start residue: 639)” was tested, and the log2 fold change was -0.274.
For “UniProt Q9DC60 (peptide sequence: VGDPQKNEWPEQDRLPER, peptide start residue: 21)”, the log2 fold change was 0.285.
“UniProt Q9EPL2 (peptide sequence: ATEDVLVK, peptide start residue: 247)” showed a log2 fold change of 0.0166.
“UniProt Q9EQF5 (peptide sequence: QPFAEYIYKR, peptide start residue: 466)” was tested, and the log2 fold change was 0.176.
For “UniProt Q9EPL9 (peptide sequence: SYGADLPLEK, peptide start residue: 64)”, the log2 fold change was -0.459.
With “UniProt Q9EQ61 (peptide sequence: KLQLSLPDFRR, peptide start residue: 26)” the log2 fold change was -0.327.
Target “UniProt Q9DCL8 (peptide sequence: RKLHYNEGLNIK, peptide start residue: 145)” has a log2 fold change of 0.342.
Work on “UniProt Q9DB34 (peptide sequence: KTPEELLR, peptide start residue: 9)” yielded a log2 fold change of 0.164.
“UniProt Q9EP75 (peptide sequence: AEGGLWLRVEPLSAGAH, peptide start residue: 508)” was tested, and the log2 fold change was 0.131.
For “UniProt Q9EPW2 (peptide sequence: SHLHPESAGR, peptide start residue: 179)”, the log2 fold change was -0.116.
“UniProt Q9DCC3 (peptide sequence: GPAVNGEQPLKV, peptide start residue: 231)” was tested, and the log2 fold change was -0.426.
In the case of “UniProt Q9DCH4 (peptide sequence: TCFSPNR, peptide start residue: 259)”, the log2 fold change is reported as 0.156.
In the case of “UniProt Q9DB00 (peptide sequence: AAANSETIAPHR, peptide start residue: 2043)”, the log2 fold change is reported as 0.498.
In the case of “UniProt Q9EP89 (peptide sequence: AKVEQDSEAR, peptide start residue: 269)”, the log2 fold change is reported as -0.114.
In the case of “UniProt Q9DBY1 (peptide sequence: EEMVTGAK, peptide start residue: 296)”, the log2 fold change is reported as -0.314.
For “UniProt Q9DC48 (peptide sequence: CPLPAADSLMHLTK, peptide start residue: 29)”, the log2 fold change was -0.259.
“UniProt Q9DAP0 (peptide sequence: DLEQELHQHQER, peptide start residue: 208)” was tested, and the log2 fold change was -0.238.
In the case of “UniProt Q9ERI2 (peptide sequence: ANGPDGAVGR, peptide start residue: 55)”, the log2 fold change is reported as -0.344.
With “UniProt Q9DBI0 (peptide sequence: CFQLPCSTR, peptide start residue: 4)” the log2 fold change was 0.245.
With “UniProt Q9EPK7 (peptide sequence: LGWFDCQKDDYVFR, peptide start residue: 118)” the log2 fold change was 0.42.
Target “UniProt Q9DCD0 (peptide sequence: YGPSLMPGGNK, peptide start residue: 137)” has a log2 fold change of 0.185.
“UniProt Q9DBH0 (peptide sequence: VWSCHTLR, peptide start residue: 85)” was tested, and the log2 fold change was 0.416.
Work on “UniProt Q9DCB8 (peptide sequence: VFEQGGAR, peptide start residue: 98)” yielded a log2 fold change of -0.134.
“UniProt Q9DBR1 (peptide sequence: KYPLPPPSGR, peptide start residue: 938)” gave a log2 fold change of 0.458.
“UniProt Q9DBL9 (peptide sequence: SCIDGNSGTSIQSLRPK, peptide start residue: 300)” gave a log2 fold change of 0.0342.
“UniProt Q9ER88 (peptide sequence: ELLQSTHNK, peptide start residue: 160)” gave a log2 fold change of -0.287.
“UniProt Q9DAR7 (peptide sequence: REQEAEEAETPSTEEK, peptide start residue: 12)” gave a log2 fold change of 0.225.
For “UniProt Q9EQZ7 (peptide sequence: KEEEKEQSVLK, peptide start residue: 49)”, the log2 fold change was 0.0236.
Target “UniProt Q9ERL9 (peptide sequence: NAEGSLPQR, peptide start residue: 54)” has a log2 fold change of -0.293.
With “UniProt Q9ER69 (peptide sequence: LANGPSNGSSSR, peptide start residue: 273)” the log2 fold change was -0.526.
“UniProt Q9DD24 (peptide sequence: HLSSDDLFR, peptide start residue: 64)” showed a log2 fold change of -0.158.
Work on “UniProt Q9DBT5 (peptide sequence: SLPGNAPCLK, peptide start residue: 45)” yielded a log2 fold change of 0.063.
“UniProt Q9EQP2 (peptide sequence: VYGALMWSLGK, peptide start residue: 232)” was tested, and the log2 fold change was -2.53.
With “UniProt Q9DBB1 (peptide sequence: NCGVLVHCLAGISR, peptide start residue: 286)” the log2 fold change was 0.598.
“UniProt Q9DBE8 (peptide sequence: ILVNSQYTASVFKETFK, peptide start residue: 173)” showed a log2 fold change of 0.173.
For “UniProt Q9DCV7 (peptide sequence: AEAEAWYQTK, peptide start residue: 271)”, the log2 fold change was 0.162.
Work on “UniProt Q9EQZ6 (peptide sequence: LALTWEKLPSK, peptide start residue: 878)” yielded a log2 fold change of 0.691.
For “UniProt Q9DCH2 (peptide sequence: NNSAIHIR, peptide start residue: 126)”, the log2 fold change was -0.221.
Work on “UniProt Q9DCJ1 (peptide sequence: NIASVGFHEDGR, peptide start residue: 87)” yielded a log2 fold change of 0.472.
